Drawing on publication PMC11764357, this text covers binding for one molecule.

For assay [1], the target named is T1, ARHGEF7 (mouse (endogenous in primary cultured neurons)) (UniProt Q9ES28).
T1 sequence: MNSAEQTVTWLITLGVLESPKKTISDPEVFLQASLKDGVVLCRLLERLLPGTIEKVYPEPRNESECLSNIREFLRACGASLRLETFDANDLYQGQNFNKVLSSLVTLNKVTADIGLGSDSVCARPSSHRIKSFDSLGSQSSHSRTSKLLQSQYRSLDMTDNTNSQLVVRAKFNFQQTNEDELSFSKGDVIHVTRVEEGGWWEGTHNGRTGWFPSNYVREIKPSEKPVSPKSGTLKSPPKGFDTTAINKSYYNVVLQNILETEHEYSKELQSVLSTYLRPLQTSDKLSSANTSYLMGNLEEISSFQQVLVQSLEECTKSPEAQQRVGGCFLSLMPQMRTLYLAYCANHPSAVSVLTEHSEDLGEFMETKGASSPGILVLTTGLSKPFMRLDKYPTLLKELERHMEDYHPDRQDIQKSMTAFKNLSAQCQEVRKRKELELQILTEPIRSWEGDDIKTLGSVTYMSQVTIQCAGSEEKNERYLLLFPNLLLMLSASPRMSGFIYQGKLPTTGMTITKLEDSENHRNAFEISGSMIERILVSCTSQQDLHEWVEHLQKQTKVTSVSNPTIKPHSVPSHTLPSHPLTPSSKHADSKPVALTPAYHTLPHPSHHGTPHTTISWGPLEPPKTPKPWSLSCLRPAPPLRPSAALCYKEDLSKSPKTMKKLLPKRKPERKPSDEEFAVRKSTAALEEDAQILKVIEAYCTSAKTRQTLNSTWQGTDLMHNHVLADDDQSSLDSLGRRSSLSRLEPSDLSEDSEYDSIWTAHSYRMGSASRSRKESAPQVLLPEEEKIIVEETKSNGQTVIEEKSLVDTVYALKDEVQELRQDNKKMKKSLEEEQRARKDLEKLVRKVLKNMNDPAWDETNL
Nature of the assay: co-IP; endogenous proteins; crude neuronal lysates as well as synaptosomal fractions; immunoblot for STIL. On the technique in general: A western blot detects proteins with antibodies after separation by electrophoresis.

For assay [2], the target named is T1, ARHGEF7 (mouse (endogenous in primary cultured neurons)). Description: proximity ligation; Duolink in situ PLA kit on fixed cultured mouse hippocampal neurons with antibodies against STIL and ARHGEF7; phalloidin staining afterwards; with and without cLTP induction before fixation.

Results are given in words; binding and its absence hold for the method and conditions named. Binding seen in cells or lysates may run through a third protein. Some results given as binding are weak or reduced against the parent protein; the word gives no strength.

B1: STIL (protein, UniProt Q60988 1-1262)
chain: MNTRFPSSKMVPFHFPPSKLALWNPMPIGECIYLHLSYYRKPKLMVTEKAIRLAYRHAKQNKKNVPCFLLGSLTVDEDEEGVTLTIDRFDPGREIPECLERTPTASLPGDFLIPCRVHIQGLGSRDVIVHNADDFSSALKALQYHVCSKDFLDCGKLLCLRAQITPRESLDGVDFNLQWTAVTLANSFKCVPVKPIPIIPTALARNLSSNLNISQVQGTYKHGYITMDETRKLLLLLQSDPKVSSLPLVGIWLAGIIHVYSPQVWACCLRYMFSSSIQERVFSESGNFIIVLYSLTHKEPEFYECLPCESRTPDLQFQLLTNKETLHLFNNVEPSGKNPIHFELSAESQDAEAEAEVLSKISKTLPVKRSSQKLSPGKIPINKHDTDLEDEDFSPRPIPSPHPVSQKISKVQPSVPELSLVLDNNFTESSNQSNPLEMMTVENPLLIKPSQPELCDAKHSSEATTGEPFRRGPTNQLSQDTALRQSRGKQSSTCKKESLQFRNTNAKPSLSVPSPDVAEKLQAVSAGSMQKEDYPVRPSTLDSRQPSLAPQAQPHNLVFSTHNSTRPMELQVPTPSLPSYYPTNVCSCCQHHGHIQYSTINSWQGNTVGSIQDLRSESLPKHAFFHSSGCPSLCPNAIYSSSSPVSMKQGGMGAYSPHSNGEPSPVAGPSHVDSCVPHPCAMCMHTPNTAPDNGMMGLSPDAYRFVTEQDRQLRLLQAQIQRLLEAQSLDPGSHKTVATVEDTVKAAKQMELVSMEAQSSPGLHMRKSVSIAVSTGASLFWNAAGDDQEPDSQPKQDDTKISSEDMNFSVDINNEATSLPGSASSLKAVDIPSFEESNLAVEEVNQPLPESNSSSEQSKEPGVPVFFPNALLAESVSMCLQTAPTEGASNSTELPQGTKDEPYRPSDNQKIYQDLLGQVNHLLSNASQETEEPPTKAVVTNRECAKTQNTHHARKKRHNSGLVDKDCVLSATIKQLRSLGVKIDSPTKVKKNEQKVDHASVLACISPEAVISGLNYMSFGNVGMSSLSPTGVDLSMEANAIALKYLSENQLSQLSLARSKQNNGDSSVGLLHINSDRSTVGLSLVSPSNMSFATKKYMKRYGLLQSSDNSEDEEEPPSHADSESDHVLNRNPACRPVQCGHEKEPSWNACEIAQCSDCGSADTRTDVPVLRNITNQAVQPRATEHLNEDSAISLRNLKPNPAMNLRTGKAEFTHHPEKENERDIAVFPGTLPSPETLKQMNSMDSVGTFLDVKRLRQLPKLF
Regarding B1, the binding result is on record as “binds weakly” in assay [1] and “binds” in assay [2].
